Test results: US20180057602A1
No constants are given. Whether binding was seen depends on the method and setting. Some results given as binding are weak or reduced against the parent protein; the word gives no strength.

What was measured:
[1] = target: T1, human endoglin (CD105) (human) (UniProt P17813); experiment: immunohistochemistry, reactivity grade (0, +, ++, +++), bladder tumor, 2 specimens
T1 sequence (looked up): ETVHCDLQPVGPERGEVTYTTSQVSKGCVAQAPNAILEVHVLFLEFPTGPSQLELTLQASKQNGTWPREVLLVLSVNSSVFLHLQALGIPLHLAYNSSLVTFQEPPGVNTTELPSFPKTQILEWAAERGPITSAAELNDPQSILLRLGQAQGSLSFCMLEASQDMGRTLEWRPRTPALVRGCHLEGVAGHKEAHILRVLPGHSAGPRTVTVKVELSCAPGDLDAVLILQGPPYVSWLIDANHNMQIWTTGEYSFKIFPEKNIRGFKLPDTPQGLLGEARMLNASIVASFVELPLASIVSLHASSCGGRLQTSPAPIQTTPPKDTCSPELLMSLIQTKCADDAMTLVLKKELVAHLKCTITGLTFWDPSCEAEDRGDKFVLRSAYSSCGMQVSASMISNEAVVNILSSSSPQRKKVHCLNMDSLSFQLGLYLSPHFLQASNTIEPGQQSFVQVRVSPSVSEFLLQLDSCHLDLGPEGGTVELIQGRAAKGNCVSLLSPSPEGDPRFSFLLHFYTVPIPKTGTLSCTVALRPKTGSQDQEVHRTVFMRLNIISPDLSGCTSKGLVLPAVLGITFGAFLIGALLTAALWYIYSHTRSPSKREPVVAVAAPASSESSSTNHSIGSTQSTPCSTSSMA

[2] = target: T1, human endoglin (CD105) (human); experiment: immunohistochemistry, reactivity grade (0, +, ++, +++), thyroid tumor, 3 specimens
[3] = target: T1, human endoglin (CD105) (human); experiment: immunohistochemistry, reactivity grade (0, +, ++, +++), rectum tumor, 2 specimens
[4] = target: T1, human endoglin (CD105) (human); experiment: immunohistochemistry, reactivity grade (0, +, ++, +++), colon tumor, 4 specimens
[5] = target: T1, human endoglin (CD105) (human); experiment: immunohistochemistry, reactivity grade (0, +, ++, +++), penis tumor, 1 specimen
[6] = target: T1, human endoglin (CD105) (human); experiment: immunohistochemistry, reactivity grade (0, +, ++, +++), lymphoma, 7 specimens
[7] = target: T1, human endoglin (CD105) (human); experiment: immunohistochemistry, reactivity grade (0, +, ++, +++), breast tumor, 21 specimens
[8] = target: T1, human endoglin (CD105) (human); experiment: immunohistochemistry, reactivity grade (0, +, ++, +++), lung tumor, 3 specimens
[9] = target: T1, human endoglin (CD105) (human); experiment: immunohistochemistry, reactivity grade (0, +, ++, +++), bone tumor, 1 specimen
[10] = target: T1, human endoglin (CD105) (human); experiment: immunohistochemistry on frozen, acetone-fixed human carcinoma samples, 10,000-fold dilution of ascites
[11] = target: T1, human endoglin (CD105) (human); experiment: immunohistochemistry, reactivity grade (0, +, ++, +++), pancreas tumor, 1 specimen
[12] = target: T1, human endoglin (CD105) (human); experiment: immunohistochemistry, reactivity grade (0, +, ++, +++), liver tumor, 1 specimen
[13] = target: T1, human endoglin (CD105) (human); experiment: immunohistochemistry, reactivity grade (0, +, ++, +++), esophagus tumor, 1 specimen
[14] = target: T1, human endoglin (CD105) (human); experiment: immunohistochemistry, reactivity grade (0, +, ++, +++), stomach tumor, 2 specimens
[15] = target: T1, human endoglin (CD105) (human); experiment: immunohistochemistry, reactivity grade (0, +, ++, +++), ovary tumor, 2 specimens

Measured: binding

B1: anti-endoglin antibody SN6j (antibody, V domains shown)
VH: EVKLEESGGGLVQPGGSMKLSCAASGFTFSDAWMDWVRQSPEKGLEWVAEIRSKASNHATYYAESVKGRFTISRDDSKSSVYLQMNSLRAEDTGIYYCTRWRRFFDSWGQGTTLTVSS
VL: QIVLSQSPAILSASPGEKVTMTCRASSSVSYMHWYQQKPGSSPKPWIYATSNLASGVPVRFSGSGSGTSYSLTISRVEAEDAATYYCQQWSSNPLTFGAGTKLELK
binds: [1] | [2] | [3] | [4] | [5] | [6] | [7] | [8] | [9] | [10] | [11] | [12] | [13] | [14] | [15]
